These are yes or no findings as the source states them, for the method shown. For some of these results: In cells and extracts the contact can be indirect. Some binding calls cover weakened binding; strength is not graded here.

By UniProt entry, the sequences of proteins in these tests, tags left out. Where a name states a change or a piece, a line headed by the entry shows the natural chain unless it says otherwise. Residues count along the entry.
UniProt Q6R327: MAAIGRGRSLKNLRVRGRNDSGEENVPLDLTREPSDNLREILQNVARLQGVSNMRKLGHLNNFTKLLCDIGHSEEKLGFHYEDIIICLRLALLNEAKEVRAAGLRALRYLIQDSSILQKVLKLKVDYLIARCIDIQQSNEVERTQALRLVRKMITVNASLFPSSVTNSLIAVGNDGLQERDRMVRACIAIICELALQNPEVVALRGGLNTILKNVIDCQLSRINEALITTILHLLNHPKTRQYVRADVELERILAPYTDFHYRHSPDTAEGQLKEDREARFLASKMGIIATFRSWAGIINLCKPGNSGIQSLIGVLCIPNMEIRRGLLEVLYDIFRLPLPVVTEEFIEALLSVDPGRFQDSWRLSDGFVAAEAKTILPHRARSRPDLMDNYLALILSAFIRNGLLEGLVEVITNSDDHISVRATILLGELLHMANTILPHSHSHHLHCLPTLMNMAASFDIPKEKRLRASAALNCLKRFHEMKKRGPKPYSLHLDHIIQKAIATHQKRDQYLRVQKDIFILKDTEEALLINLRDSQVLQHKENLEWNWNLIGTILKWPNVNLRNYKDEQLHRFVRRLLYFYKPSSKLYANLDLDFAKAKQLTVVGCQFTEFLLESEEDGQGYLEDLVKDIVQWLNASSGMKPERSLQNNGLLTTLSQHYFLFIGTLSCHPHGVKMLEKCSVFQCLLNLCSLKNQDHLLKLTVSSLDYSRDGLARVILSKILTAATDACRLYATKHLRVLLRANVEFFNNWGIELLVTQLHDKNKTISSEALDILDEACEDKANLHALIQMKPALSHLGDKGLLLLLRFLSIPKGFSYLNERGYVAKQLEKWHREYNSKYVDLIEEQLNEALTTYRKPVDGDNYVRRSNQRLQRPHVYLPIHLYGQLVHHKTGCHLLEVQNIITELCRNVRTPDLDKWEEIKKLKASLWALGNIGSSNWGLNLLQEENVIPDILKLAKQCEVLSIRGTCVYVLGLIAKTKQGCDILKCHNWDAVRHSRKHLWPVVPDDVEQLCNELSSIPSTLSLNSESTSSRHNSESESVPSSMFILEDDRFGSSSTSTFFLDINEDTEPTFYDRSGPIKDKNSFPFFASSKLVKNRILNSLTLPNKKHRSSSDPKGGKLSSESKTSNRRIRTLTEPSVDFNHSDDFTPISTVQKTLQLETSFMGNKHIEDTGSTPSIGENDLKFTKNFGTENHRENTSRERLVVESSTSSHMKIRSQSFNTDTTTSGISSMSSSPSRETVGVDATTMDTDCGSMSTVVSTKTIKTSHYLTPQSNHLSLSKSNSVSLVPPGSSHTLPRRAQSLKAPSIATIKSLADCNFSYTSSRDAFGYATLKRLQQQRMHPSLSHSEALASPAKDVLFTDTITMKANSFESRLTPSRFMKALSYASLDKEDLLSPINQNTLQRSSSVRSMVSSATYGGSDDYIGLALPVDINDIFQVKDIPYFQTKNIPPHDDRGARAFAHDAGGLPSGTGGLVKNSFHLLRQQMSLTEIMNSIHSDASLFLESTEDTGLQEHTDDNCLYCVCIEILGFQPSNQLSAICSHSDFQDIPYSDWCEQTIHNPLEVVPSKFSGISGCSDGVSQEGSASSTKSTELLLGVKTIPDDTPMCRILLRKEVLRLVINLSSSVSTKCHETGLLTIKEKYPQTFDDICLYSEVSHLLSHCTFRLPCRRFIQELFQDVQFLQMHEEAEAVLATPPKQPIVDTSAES
UniProt P42227, residues 2-770: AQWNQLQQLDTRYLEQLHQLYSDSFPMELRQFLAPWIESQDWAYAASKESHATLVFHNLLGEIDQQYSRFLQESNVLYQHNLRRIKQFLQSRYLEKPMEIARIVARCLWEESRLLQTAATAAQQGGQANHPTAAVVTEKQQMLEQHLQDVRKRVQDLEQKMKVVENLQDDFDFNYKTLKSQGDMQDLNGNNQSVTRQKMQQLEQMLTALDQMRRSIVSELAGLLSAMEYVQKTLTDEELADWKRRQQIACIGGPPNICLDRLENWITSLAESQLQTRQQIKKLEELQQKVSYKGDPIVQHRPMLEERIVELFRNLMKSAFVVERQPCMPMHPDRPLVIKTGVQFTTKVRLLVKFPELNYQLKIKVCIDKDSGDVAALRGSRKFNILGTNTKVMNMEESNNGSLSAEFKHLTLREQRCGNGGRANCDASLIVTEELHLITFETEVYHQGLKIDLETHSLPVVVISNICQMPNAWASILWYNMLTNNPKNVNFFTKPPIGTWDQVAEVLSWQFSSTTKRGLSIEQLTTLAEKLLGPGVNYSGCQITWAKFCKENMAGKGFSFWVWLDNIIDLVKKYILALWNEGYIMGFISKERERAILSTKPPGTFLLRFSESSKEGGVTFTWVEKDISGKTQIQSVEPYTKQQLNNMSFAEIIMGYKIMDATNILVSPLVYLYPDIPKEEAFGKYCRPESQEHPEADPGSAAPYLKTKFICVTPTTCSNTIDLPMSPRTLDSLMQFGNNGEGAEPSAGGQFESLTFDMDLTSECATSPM
UniProt Q86TY3, residues 28-774: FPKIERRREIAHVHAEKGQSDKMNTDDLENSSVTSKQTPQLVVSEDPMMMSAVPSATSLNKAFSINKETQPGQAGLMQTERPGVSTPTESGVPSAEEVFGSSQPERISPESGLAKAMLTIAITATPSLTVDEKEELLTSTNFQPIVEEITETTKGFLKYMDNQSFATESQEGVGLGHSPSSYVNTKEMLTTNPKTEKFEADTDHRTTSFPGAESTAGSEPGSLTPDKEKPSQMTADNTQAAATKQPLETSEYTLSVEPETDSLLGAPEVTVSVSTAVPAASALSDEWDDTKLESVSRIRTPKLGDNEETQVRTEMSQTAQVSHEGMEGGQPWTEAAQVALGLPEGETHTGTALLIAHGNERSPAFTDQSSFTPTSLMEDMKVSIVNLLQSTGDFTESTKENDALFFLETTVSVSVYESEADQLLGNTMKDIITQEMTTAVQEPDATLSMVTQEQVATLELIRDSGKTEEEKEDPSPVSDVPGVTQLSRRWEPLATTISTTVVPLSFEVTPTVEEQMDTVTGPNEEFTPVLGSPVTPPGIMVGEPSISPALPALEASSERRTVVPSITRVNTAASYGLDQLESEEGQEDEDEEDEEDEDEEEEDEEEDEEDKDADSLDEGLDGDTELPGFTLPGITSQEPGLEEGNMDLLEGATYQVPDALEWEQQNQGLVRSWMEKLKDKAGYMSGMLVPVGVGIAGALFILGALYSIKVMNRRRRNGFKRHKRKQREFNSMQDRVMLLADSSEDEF
UniProt Q8BT18, residues 48-775: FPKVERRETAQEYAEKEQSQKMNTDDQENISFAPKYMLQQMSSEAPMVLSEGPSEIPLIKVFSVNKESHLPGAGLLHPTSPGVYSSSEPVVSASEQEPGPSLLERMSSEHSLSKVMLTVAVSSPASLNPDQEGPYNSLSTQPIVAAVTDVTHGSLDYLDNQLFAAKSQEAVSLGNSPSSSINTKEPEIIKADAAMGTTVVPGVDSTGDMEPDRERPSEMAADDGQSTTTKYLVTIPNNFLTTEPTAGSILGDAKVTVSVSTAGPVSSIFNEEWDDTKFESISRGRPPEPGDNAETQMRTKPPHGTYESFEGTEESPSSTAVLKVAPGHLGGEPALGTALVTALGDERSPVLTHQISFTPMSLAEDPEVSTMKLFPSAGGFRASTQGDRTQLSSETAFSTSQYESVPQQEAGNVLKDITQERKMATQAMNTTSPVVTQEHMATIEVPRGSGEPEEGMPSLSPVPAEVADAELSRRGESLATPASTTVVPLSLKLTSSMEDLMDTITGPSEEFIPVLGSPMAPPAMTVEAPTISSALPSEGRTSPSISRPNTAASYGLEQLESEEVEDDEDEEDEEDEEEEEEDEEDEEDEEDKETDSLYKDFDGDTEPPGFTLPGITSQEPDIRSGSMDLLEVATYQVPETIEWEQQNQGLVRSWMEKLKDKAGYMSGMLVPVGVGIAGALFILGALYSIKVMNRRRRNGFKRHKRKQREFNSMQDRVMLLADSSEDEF

In patent publication US20170131280A1 one finds binding data, which are given here for two substances.

For assay [1], the target named is Rictor, endogenous protein of 293T cells (human) (UniProt Q6R327). As to the kind of experiment: reciprocal co-immunoprecipitation from 293T cell lysates, western blot. For orientation: A western blot detects proteins with antibodies after separation by electrophoresis.
Assay [2] has as its target STAT3, endogenous protein of murine BM cells (mouse) (UniProt P42227). The experiment in a line: immunoprecipitation from BM cell lysates, immunoblot (FIGS. 2A-2E legend).
Assay [3] concerns the target Rictor, endogenous protein of murine BM cells (mouse) (UniProt Q6QI06). As to the kind of experiment: summary sentence of Example 1 (co-immunoprecipitation).
The target is the same in assay [4]. The experiment in a line: reciprocal co-immunoprecipitation from murine BM cell lysates, western blot.

As for “Suppressor of AKT (SAKT), endogenous protein of 293T cells (from UniProt Q86TY3 28-774) (receptor)”, the binding entry in assay [1] was “binds”.

With “Suppressor of AKT (SAKT), endogenous protein of murine bone marrow (BM) cells (from UniProt Q8BT18 48-775) (receptor)”, the binding entry in assay [2], in assay [3] and in assay [4] was “binds” each time.
